In article PMC12040169 (PLOS Biology, 2025):
This is one part of the list.

Test system: T1, CTL2-GFP (C. trachomatis L2/434/Bu, GFP-expressing)
T1 construct: L2/434/Bu, GFP-expressing
Set-up: species or system HeLa; Intracellular C. trachomatis growth in HeLa cells, bulk GFP fluorescence relative to DMSO
Details: bulk GFP, single well; 28.5 h, 10 µM; inhibitor

| SMILES | % of control remaining |
| --- | --- |
| CCn1nc(-c2ccc(C)o2)nc1CC1NC(=O)c2ccccc21 (stereo not drawn) [CBK306834] | 114.655% |
| Nc1nnc(C2CCCCC2)s1 [CBK039123] | 91.8607% |
| COCCCNS(=O)(=O)c1ccc(-n2ncc(Cl)c(Cl)c2=O)cc1 [CBK305039] | 38.8397% |
| CN1CCC(N2CCN(C(=O)Nc3ccc(Cl)cc3)CC2)CC1 [CBK155899] | 97.1157% |
| Cc1cc2ccccc2n2c(=O)n(CC(=O)NC3CCCC3)nc12 [CBK283884] | 128.488% |
| CC(C)c1ccc(S(=O)(=O)NCc2c(F)ccc(Cl)c2F)cc1 [CBK043484] | 98.0631% |
| O=C([C@H]1C[C@@H](O)[C@H](O)[C@@H]2N=C(Nc3ccc4c(c3)OCO4)S[C@@H]21)N1CCCCC1 [CBK288953] | 123.703% |
| CC(C)Nc1nc2ccccc2nc1OCc1ccsc1 [CBK115660] | 160.428% |
| Cc1ccc(OC(C)C(=O)N2CCCc3c(cnn3C)C2)cc1 (stereo not drawn) [CBK282242] | 129.927% |
| Cc1cccc(C)c1-c1cn2ccnc2c(N2CCN(c3ccccn3)CC2)n1 [CBK037389] | 121.25% |
| O=S(=O)(c1c(Cl)cc(C(F)(F)F)cc1Cl)N1CCOCC1 [CBK057736] | 113.18% |
| CCc1nnsc1C(=O)N1CCc2[nH]c3c(C)cccc3c2C1 [CBK281655] | 138.317% |
| Cc1ccc(C2C(C(=O)c3ccc(Cl)cc3)=C(O)C(=O)N2CCCN2CCOCC2)o1 (stereo not drawn) [CBK264514] | 123.069% |
| COc1cncc(-c2cnc3[nH]c(=O)n([C@H](CO)C(C)C)c3n2)c1 [CBK064977] | 110.442% |
| COc1coc(CN2C(=O)COc3cccnc32)cc1=O [CBK307126] | 78.8149% |
| O=C(O)C1CC1(C(=O)O)C(=O)O (stereo not drawn) [CBK261009] | 80.5401% |
| COc1ccc(-c2nnc(SCC(=O)c3ccccc3)o2)cc1 [CBK069390] | 101.967% |
| CCOC(=O)N1CCC(NC(=O)N2CCCC(C(=O)N(CC)CC)C2)CC1 (stereo not drawn) [CBK156159] | 104.723% |
| O=C(CSc1nc2ccccc2c(=O)n1Cc1ccccc1)c1ccc(Br)cc1 [CBK262700] | 109.873% |
| Cc1cccc2c1CC(=O)NC21CCN(CC(=O)c2ccc(F)cc2)CC1 [CBK039946] | 111.375% |

| SMILES | % of control remaining |
| --- | --- |
| CC(=O)N1CCC(N[C@H]2C[C@@H](Cc3cc(CN4CCCCC4)on3)C2(C)C)CC1 [CBK289699] | 176.606% |
| O=C(CC(CN1CCN(CCO)CC1)C(=O)O)Nc1ccccc1F (stereo not drawn) [CBK286790] | 126.225% |
| Nc1n[nH]c(CCCc2nc(N)n[nH]2)n1 [CBK261016] | 94.5869% |
| COc1ccc(-c2cc(N3CCC(N4CCCCC4)CC3)ncn2)cc1OC [CBK037752] | 104.897% |
| O=C(O)c1cc(NCc2cccc(F)c2F)n[nH]1 [CBK287006] | 135.407% |
| Cc1nnc(O)c2c(C)n(-c3ccc(Br)cc3)nc12 [CBK008726] | 136.062% |
| O=C(Nc1cccc(C(=O)O)c1)Nc1cccc(-c2ccccc2)c1 [CBK155451G] | 65.3581% |
| CCC(=O)N1CCCC(c2nnc(-c3cccs3)o2)C1 (stereo not drawn) [CBK283060] | 152.23% |
| CSc1nnc(CC2CCN(C(=O)c3cccc(N)c3)CC2)n1C [CBK307339] | 172.018% |
| CN(C)C(=O)C1(Cc2ccccc2-c2cccs2)CCN(C(=O)Cc2ccccc2)CC1 [CBK285687] | 109.338% |
| COc1ccc(S(=O)(=O)N(C)CC(=O)O)cc1C [CBK267176] | 123.99% |
| CCCN(C(C)C(=O)N(C)C)S(=O)(=O)c1ccc(Cl)cc1 (stereo not drawn) [CBK016123] | 100% |
| Cc1cccc(OCc2nc3c4c5c(sc4ncn3n2)CCCCC5)c1C [CBK265284] | 123.427% |
| O=C(O)CCN1CCN(S(=O)(=O)c2ccccc2)CC1 [CBK269402] | 144.656% |
| COc1ccc(C2(C(=O)N[C@H]3CC[C@H](O)CC3)CC2)cc1 [CBK149840] | 115.079% |
| O=C(c1c(F)cc(-c2cncc(-c3ccc(O)cc3)n2)cc1F)N1CCOCC1 [CBK131973] | 139.907% |
| CC(C)CN(CC(C)C)C(=O)Cn1cc([N+](=O)[O-])cc(C(N)=O)c1=O [CBK297784] | 152.256% |
| CC(C)C(=O)N1CC2(CCN(Cc3ccc(Cl)c(Cl)c3)CC2)c2ccccc21 [CBK126715] | 95.8212% |
| O=C(Cc1cccc(F)c1)N1CCC(O)(c2ccccn2)CC1 [CBK283586] | 148.28% |

Sorted by molar mass (high to low): three of the compounds above

| SMILES | % of control remaining |
| --- | --- |
| Cc1cccc(OCc2nc3c4c5c(sc4ncn3n2)CCCCC5)c1C [CBK265284] | 123.427% |
| O=C(CC(CN1CCN(CCO)CC1)C(=O)O)Nc1ccccc1F (stereo not drawn) [CBK286790] | 126.225% |
| COc1ccc(S(=O)(=O)N(C)CC(=O)O)cc1C [CBK267176] | 123.99% |
